For one molecule, binding results are on record in publication PMC3415457, “Cohesin Rings Devoid of Scc3 and Pds5 Maintain Their Stable Association with the DNA” (PLoS Genetics, 2012).

For this test, the target named is T1, GST fused to the C-terminal region (aa 338–566) of Scc1 (S. cerevisiae (budding yeast)) (UniProt Q12158).
T1 sequence: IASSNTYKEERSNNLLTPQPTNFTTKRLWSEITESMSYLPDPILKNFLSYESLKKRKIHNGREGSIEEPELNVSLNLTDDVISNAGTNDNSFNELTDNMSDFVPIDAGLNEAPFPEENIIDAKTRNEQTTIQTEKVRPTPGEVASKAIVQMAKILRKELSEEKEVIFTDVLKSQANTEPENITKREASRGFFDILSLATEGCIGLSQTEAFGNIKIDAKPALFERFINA
Nature of the test: pull-down; GST fusions of Scc1 regions on glutathione-agarose beads; His6-tagged Wpl1, Scc3 and Pds5 mixed together and pre-incubated 30 min at 4°C, then with beads 2 h at 4°C; 20 mM HEPES pH 7.5, 100 mM NaCl, 5% glycerol, 5 mM 2-mercaptoethanol; washes with 0.5% NP-40; Western blot with Penta-His antibody; both purified.

No constants are given. Whether binding was seen depends on the method and setting. Some entries that bind do so weakly or less than the wild type. Where a sequence is shown, tags or fusion partners need not be part of it.

B1: Pds5, recombinant, His6-tagged (protein, UniProt Q04264 1-1277)
chain: MAKGAVTKLKFNSPIISTSDQLISTNELLDRLKALHEELASLDQDNTDLTGLDKYRDALVSRKLLKHKDVGIRAFTACCLSDILRLYAPDAPYTDAQLTDIFKLVLSQFEQLGDQENGYHIQQTYLITKLLEYRSIVLLADLPSSNNLLIELFHIFYDPNKSFPARLFNVIGGILGEVISEFDSVPLEVLRLIFNKFLTYNPNEIPEGLNVTSDCGYEVSLILCDTYSNRMSRHLTKYYSEIIHEATNDDNNSRLLTVVVKLHKLVLRLWETVPELINAVIGFIYHELSSENELFRKEATKLIGQILTSYSDLNFVSTHSDTFKAWISKIADISPDVRVEWTESIPQIIATREDISKELNQALAKTFIDSDPRVRRTSVMIFNKVPVTEIWKNITNKAIYTSLLHLAREKHKEVRELCINTMAKFYSNSLNEIERTYQNKEIWEIIDTIPSTLYNLYYINDLNINEQVDSVIFEYLLPFEPDNDKRVHRLLTVLSHFDKKAFTSFFAFNARQIKISFAISKYIDFSKFLNNQESMSSSQGPIVMNKYNQTLQWLASGLSDSTKAIDALETIKQFNDERIFYLLNACVTNDIPFLTFKNCYNELVSKLQTPGLFKKYNISTGASIMPRDIAKVIQILLFRASPIIYNVSNISVLLNLSNNSDAKQLDLKRRILDDISKVNPTLFKDQIRTLKTIIKDLDDPDAEKNDNLSLEEALKTLYKASKTLKDQVDFDDTFFFTKLYDFAVESKPEITKYATKLIALSPKAEETLKKIKIRILPLDLQKDKYFTSHIIVLMEIFKKFPHVLNDDSTDIISYLIKEVLLSNQVVGDSKKEIDWVEDSLLSDTKYSAIGNKVFTLKLFTNKLRSIAPDVPRDELAESFTEKTMKLFFYLIASGGELISEFNKEFYPTPSNYQTKLRCVAGIQVLKLARISNLNNFIKPSDIIKLINLVEDESLPVRKTFLEQLKDYVANELISIKFLPLVFFTAYEPDVELKTTTKIWINFTFGLKSFKKGTIFERALPRLIHAIAHHPDIVGGLDSEGDAYLNALTTAIDYLLFYFDSIAAQENFSLLYYLSERVKNYQDKLVEDEIDEEEGPQKEEAPKKHRPYGQKMYIIGELSQMILLNLKEKKNWQHSAYPGKLNLPSDLFKPFATVQEAQLSFKTYIPESLTEKIQNNIKAKIGRILHTSQTQRQRLQKRLLAHENNESQKKKKKVHHARSQADDEEGDGDRESDSDDDSYSPSNKNETKKGHENIVMKKLRVRKEVDYKDDEDDDIEMT
B1: the binding entry is listed as “binds weakly”.
